In the supplement of paper PMC4604168 (melanoma cell lines):
The list shows a part of the results. Many values rest on one well or one pass, so single values are uncertain.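 Imaging used 1,536-well plates; nuclei positive for cleaved PARP by antibody were divided by total DNA-stained nuclei to yield the apoptosis fraction. Doses for screening kept most cells viable, and cell lines differ markedly in resting and induced cleaved-PARP levels.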

How the values were obtained:
Assay in all cases: cleaved PARP positive nuclei fraction relative to DMSO control; melanoma cells; higher = more apoptosis
Conditions in all cases: library dose: low library concentration; 72 h
501Mel = system: 501Mel
A101D = system: A101D
A2058 = system: A2058
A375 = system: A375
C32 = system: C32
CBRC008 = system: CBRC008 (line from a melanoma biopsy)
CBRC013 = system: CBRC013 (line from a melanoma biopsy)
CBRC014 = system: CBRC014 (line from a melanoma biopsy)
CBRC016 = system: CBRC016 (line from a melanoma biopsy)
CBRC017 = system: CBRC017 (line from a melanoma biopsy)
COLO792 = system: COLO792
COLO800 = system: COLO800
COLO829 = system: COLO829
G361 = system: G361
IPC-298 = system: IPC-298
IST-MEL1 = system: IST-MEL1
LB2518-MEL = system: LB2518-MEL
LOXIMVI = system: LOXIMVI
MEL-HO = system: MEL-HO

| SMILES | cleaved PARP positive nuclei fraction (501Mel) | cleaved PARP positive nuclei fraction (A101D) | cleaved PARP positive nuclei fraction (A2058) | cleaved PARP positive nuclei fraction (A375) | cleaved PARP positive nuclei fraction (C32) | cleaved PARP positive nuclei fraction (CBRC008) | cleaved PARP positive nuclei fraction (CBRC013) | cleaved PARP positive nuclei fraction (CBRC014) | cleaved PARP positive nuclei fraction (CBRC016) | cleaved PARP positive nuclei fraction (CBRC017) | cleaved PARP positive nuclei fraction (COLO792) | cleaved PARP positive nuclei fraction (COLO800) | cleaved PARP positive nuclei fraction (COLO829) | cleaved PARP positive nuclei fraction (G361) | cleaved PARP positive nuclei fraction (IPC-298) | cleaved PARP positive nuclei fraction (IST-MEL1) | cleaved PARP positive nuclei fraction (LB2518-MEL) | cleaved PARP positive nuclei fraction (LOXIMVI) | cleaved PARP positive nuclei fraction (MEL-HO) |
| --- | --- | --- | --- | --- | --- | --- | --- | --- | --- | --- | --- | --- | --- | --- | --- | --- | --- | --- | --- |
| OCc1c[nH]c2ccccc12 [Indole-3-carbinol] + O=C(Nc1cccc(Cl)c1)Nc1ncc(CCNc2ncnc3ccsc23)s1 [SNS314] (first compound 0.8 µM, partner dose 0.0008 µM) | 157% | 76.2% | 105% | 23.5% | 127% | 93.8% | 96.2% | 72.5% | 96.3% | 89.1% | 20.6% | 80.3% | 101% | 57.2% | 53.5% | 112% | 63.5% | 88.3% | 117% |
| COc1cc(Nc2ncc(F)c(Nc3ccc4c(n3)NC(=O)C(C)(C)O4)n2)cc(OC)c1OC [Tamatinib] + NC(=O)Nc1cc(-c2cccc(F)c2)sc1C(=O)N[C@H]1CCCNC1 [AZD7762] (first compound 0.4 µM, partner dose 0.02 µM) | 184% | 114% | 112% | 609% | 153% | 449% | 92.6% | 96.2% | 99.9% | 110% | 121% | 44.4% | 113% | 99.8% | 99.7% | 48.2% | 48.6% | 119% | 95.2% |
| Cc1ccc(NC(=O)c2cccc(N(C)C)c2)cc1NC(=O)c1ccc(O)cc1 + CN(C)S(=O)(=O)c1ccc2c(c1)/C(=C/c1cc3c([nH]1)CCCC3)C(=O)N2 [SU6656] (first compound 2 µM, partner dose 0.4 µM) | 86.6% | 219% | 108% | 171% | 264% | 65.2% | 121% | 112% | 103% | 105% | 105% | 55.4% | 83.8% | 93.3% | 73.8% | 106% | 35.3% | 224% | 160% |
| Nc1cccc2c1CN(C1CCC(=O)NC1=O)C2=O (stereo unspecified) [lenalidomide] + CO[C@@H]1[C@H](N(C)C(=O)c2ccccc2)C[C@H]2O[C@]1(C)n1c3ccccc3c3c4c(c5c6ccccc6n2c5c31)C(=O)NC4 [Midostaurin] (first compound 1 µM, partner dose 0.08 µM) | 73.6% | 79% | 95.2% | 210% | 143% | 120% | 111% | 91.2% | 193% | 96% | 112% | 45% | 69.7% | 36.6% | 96.3% | 118% | 99.5% | 32.7% | 295% |
| CC(=O)c1c(C)c2cnc(Nc3ccc(N4CCNCC4)cn3)nc2n(C2CCCC2)c1=O [palbociclib] + C[C@@H]1CCN(C(=O)CC#N)C[C@@H]1N(C)c1ncnc2[nH]ccc12 [CP690550] (first compound 0.04 µM, partner dose 1 µM) | 116% | 70% | 89.7% | 97.1% | 124% | 114% | 102% | 100% | 56.2% | 245% | 103% | 63% | 111% | 188% | 106% | 54.6% | 130% | 78.6% | 78.3% |
| COCC[n+]1c2c(n(Cc3cnccn3)c1C)C(=O)c1ccccc1C2=O + OCCn1cc(-c2cnc3nnn(Cc4ccc5ncccc5c4)c3n2)cn1 [PF04217903] (first compound 0.0004 µM, partner dose 1 µM) | 135% | 558% | 130% | 132% | 47.9% | 973% | 119% | 69.3% | 70.1% | 109% | 14% | 184% | 92.8% | 83.5% | 56.9% | 346% | 70.2% | 65.6% | 180% |
| C#Cc1cccc(Nc2ncnc3cc(OCCOC)c(OCCOC)cc23)c1 [erlotinib] + C=CCn1c(=O)c2cnc(Nc3ccc(N4CCN(C)CC4)cc3)nc2n1-c1cccc(C(C)(C)O)n1 [MK1775] (first compound 0.8 µM, partner dose 0.02 µM) | 308% | 57.9% | 73.2% | 221% | 25.1% | 163% | 179% | 124% | 46.2% | 153% | 216% | 83.7% | 86.5% | 132% | 65.5% | 102% | 64.9% | 69.2% | 73.7% |
| Cn1nnc2c(C(N)=O)ncn2c1=O [temozolomide] + C=CCn1c(=O)c2cnc(Nc3ccc(N4CCN(C)CC4)cc3)nc2n1-c1cccc(C(C)(C)O)n1 [MK1775] (first compound 2 µM, partner dose 0.02 µM) | 85.4% | 111% | 303% | 161% | 159% | 105% | 124% | 115% | 78.3% | 101% | 320% | 202% | 83.7% | 53.5% | 108% | 115% | 47.2% | 47.9% | 141% |
| C[C@@H]1CCN(C(=O)CC#N)C[C@@H]1N(C)c1ncnc2[nH]ccc12 + CN(C)S(=O)(=O)c1ccc2c(c1)/C(=C/c1cc3c([nH]1)CCCC3)C(=O)N2 [SU6656] (first compound 1 µM, partner dose 0.4 µM) | 95.2% | 95.4% | 119% | 54.1% | 70.4% | 44.7% | 107% | 103% | 74.3% | 69.7% | 75.5% | 42.9% | 177% | 144% | 45.5% | 52.1% | 109% | 94.5% | 145% |
